Test results reported in paper PMC11592518.
These are yes or no findings as the source states them, for the method shown. Binding seen in cells or lysates may run through a third protein. Some results given as binding are weak or reduced against the parent protein; the word gives no strength. Where a sequence is shown, tags or fusion partners need not be part of it. One block for each binder: values may come before it.

The chains behind the UniProt entries cited, without tags or fusion partners.
UniProt B1N2I7: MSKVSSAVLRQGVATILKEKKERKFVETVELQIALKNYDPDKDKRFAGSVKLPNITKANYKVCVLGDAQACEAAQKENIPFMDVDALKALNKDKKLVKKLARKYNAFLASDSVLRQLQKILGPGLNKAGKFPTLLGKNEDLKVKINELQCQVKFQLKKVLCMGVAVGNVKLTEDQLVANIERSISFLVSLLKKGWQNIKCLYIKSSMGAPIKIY

Molecular target: 60S ribosomal protein L10a-2 (Entamoeba histolytica (endogenous in HM-1:IMSS trophozoites)) (UniProt B1N2I7)
Assay: co-sedimentation; ribosomes pelleted from trophozoite lysate (20 mM Hepes pH 7, 100 mM KCl, 5 mM MgCl2, 0.1% Triton, cycloheximide-treated cells) through a 0.5 M sucrose cushion, 60,000 RPM for 1 h 50 min; pellets blotted with Myc antibody and RPL1A antibody; trophozoites with or without 0.1 uM queuosine (Q) for 2 days

binding: binds
B1: Myc-tagged EhDUF2419 (enzyme, UniProt C4LXA2 1-305)
chain: MCEYVRWSVDYIEQNAKHVRVNQIKLKEKIIPLLEKIEAETFDESIHQAPNDIESRLRYILVVDALNFCFWPTEGFEYDDLTKGLSRLEHDHPEVFEPNQMKHVSSCLLSQYLVYNNRVISNIEERTRLMREVGEVLCNRFDQKVLNLLEESKYDATTLVSLIAKEFPGFRDSTIYKGRQVFFYKRAQIVVSDIQGMCGCIKGLEQLTGFADYRIPQVLLGWDVLDIEDQLKQKILDKKEIPSGSEEEIEIRCTVLSAIKMIQAIFLETKNSFIEGYRIDWFLWSYGEKNKEQLPPHHRTQTIFY

binding: binds
B2: Myc-tagged truncated EhDUF2419 (domain or fragment, UniProt C4LXA2 1-279)
chain: MCEYVRWSVDYIEQNAKHVRVNQIKLKEKIIPLLEKIEAETFDESIHQAPNDIESRLRYILVVDALNFCFWPTEGFEYDDLTKGLSRLEHDHPEVFEPNQMKHVSSCLLSQYLVYNNRVISNIEERTRLMREVGEVLCNRFDQKVLNLLEESKYDATTLVSLIAKEFPGFRDSTIYKGRQVFFYKRAQIVVSDIQGMCGCIKGLEQLTGFADYRIPQVLLGWDVLDIEDQLKQKILDKKEIPSGSEEEIEIRCTVLSAIKMIQAIFLETKNSFIEGYRI
